Results from PMC6450972.
No constants are given. Whether binding was seen depends on the method and setting. Binding seen in cells or lysates may run through a third protein. Some binding calls cover weakened binding; strength is not graded here. Sequences can lack the tags named with a protein.

By UniProt entry, the sequences of proteins in these tests, tags left out.
UniProt Q13535: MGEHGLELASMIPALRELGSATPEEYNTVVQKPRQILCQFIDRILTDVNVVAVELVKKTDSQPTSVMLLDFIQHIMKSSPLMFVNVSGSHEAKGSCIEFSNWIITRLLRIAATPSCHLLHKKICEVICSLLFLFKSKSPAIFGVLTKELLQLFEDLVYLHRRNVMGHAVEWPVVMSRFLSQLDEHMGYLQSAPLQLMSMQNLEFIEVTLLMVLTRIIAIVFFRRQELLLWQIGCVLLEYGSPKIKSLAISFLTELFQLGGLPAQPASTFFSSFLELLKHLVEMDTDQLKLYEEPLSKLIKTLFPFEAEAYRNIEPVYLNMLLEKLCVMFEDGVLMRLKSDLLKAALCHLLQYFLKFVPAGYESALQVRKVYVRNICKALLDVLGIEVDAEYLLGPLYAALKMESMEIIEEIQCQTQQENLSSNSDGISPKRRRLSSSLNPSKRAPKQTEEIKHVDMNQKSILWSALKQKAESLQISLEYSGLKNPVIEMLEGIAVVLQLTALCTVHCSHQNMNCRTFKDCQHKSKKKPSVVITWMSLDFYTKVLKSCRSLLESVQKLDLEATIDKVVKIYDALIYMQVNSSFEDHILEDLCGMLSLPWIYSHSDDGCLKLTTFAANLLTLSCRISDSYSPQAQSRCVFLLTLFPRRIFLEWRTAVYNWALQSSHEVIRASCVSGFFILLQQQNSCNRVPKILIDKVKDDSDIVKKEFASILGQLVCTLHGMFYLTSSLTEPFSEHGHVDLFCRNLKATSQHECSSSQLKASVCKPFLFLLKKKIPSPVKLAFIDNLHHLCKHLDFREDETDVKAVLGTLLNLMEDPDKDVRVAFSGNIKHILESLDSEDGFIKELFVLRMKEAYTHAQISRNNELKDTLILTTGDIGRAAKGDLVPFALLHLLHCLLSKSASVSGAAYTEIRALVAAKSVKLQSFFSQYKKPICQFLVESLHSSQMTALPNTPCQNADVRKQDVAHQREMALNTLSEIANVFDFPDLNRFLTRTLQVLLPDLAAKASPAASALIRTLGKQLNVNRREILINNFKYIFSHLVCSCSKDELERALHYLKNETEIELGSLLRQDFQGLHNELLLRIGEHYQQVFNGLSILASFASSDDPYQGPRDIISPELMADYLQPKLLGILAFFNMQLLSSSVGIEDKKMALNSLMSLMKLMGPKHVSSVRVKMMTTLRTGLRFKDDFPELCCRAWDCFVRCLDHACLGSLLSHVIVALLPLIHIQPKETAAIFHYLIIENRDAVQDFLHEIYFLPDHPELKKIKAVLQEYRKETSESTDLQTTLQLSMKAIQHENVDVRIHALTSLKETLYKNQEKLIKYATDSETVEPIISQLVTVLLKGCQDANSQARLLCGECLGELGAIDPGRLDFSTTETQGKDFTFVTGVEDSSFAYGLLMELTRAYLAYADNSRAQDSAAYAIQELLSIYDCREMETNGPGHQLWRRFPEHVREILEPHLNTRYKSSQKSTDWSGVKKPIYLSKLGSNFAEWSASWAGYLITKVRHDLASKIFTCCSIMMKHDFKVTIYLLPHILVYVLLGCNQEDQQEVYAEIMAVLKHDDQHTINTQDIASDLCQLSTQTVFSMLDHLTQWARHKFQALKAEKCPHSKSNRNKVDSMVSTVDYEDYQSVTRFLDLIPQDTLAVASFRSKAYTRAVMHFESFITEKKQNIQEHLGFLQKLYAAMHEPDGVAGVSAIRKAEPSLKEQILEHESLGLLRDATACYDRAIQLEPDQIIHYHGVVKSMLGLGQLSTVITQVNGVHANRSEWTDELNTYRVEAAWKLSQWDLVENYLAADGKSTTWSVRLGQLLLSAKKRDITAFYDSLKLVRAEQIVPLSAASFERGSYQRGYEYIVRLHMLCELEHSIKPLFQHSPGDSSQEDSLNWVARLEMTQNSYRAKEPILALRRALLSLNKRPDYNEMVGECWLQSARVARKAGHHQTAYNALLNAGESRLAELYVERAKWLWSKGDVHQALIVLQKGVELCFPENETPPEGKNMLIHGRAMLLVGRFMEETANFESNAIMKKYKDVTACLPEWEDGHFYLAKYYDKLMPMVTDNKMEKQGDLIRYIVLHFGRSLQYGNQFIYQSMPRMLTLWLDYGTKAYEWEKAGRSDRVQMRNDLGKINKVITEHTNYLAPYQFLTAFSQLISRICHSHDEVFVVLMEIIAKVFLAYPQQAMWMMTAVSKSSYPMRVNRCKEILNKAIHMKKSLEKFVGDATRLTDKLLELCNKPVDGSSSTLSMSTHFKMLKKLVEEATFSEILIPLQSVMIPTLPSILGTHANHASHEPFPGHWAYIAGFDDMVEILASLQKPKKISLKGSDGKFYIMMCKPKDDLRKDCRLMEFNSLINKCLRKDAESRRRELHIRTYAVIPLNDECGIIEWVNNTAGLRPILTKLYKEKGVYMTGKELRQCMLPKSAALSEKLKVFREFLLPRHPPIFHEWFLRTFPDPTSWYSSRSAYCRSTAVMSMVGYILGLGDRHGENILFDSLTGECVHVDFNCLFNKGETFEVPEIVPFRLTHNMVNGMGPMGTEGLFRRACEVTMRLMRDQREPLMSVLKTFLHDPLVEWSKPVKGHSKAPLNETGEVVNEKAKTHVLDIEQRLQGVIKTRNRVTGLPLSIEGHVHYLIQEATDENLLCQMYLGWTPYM
UniProt O60934: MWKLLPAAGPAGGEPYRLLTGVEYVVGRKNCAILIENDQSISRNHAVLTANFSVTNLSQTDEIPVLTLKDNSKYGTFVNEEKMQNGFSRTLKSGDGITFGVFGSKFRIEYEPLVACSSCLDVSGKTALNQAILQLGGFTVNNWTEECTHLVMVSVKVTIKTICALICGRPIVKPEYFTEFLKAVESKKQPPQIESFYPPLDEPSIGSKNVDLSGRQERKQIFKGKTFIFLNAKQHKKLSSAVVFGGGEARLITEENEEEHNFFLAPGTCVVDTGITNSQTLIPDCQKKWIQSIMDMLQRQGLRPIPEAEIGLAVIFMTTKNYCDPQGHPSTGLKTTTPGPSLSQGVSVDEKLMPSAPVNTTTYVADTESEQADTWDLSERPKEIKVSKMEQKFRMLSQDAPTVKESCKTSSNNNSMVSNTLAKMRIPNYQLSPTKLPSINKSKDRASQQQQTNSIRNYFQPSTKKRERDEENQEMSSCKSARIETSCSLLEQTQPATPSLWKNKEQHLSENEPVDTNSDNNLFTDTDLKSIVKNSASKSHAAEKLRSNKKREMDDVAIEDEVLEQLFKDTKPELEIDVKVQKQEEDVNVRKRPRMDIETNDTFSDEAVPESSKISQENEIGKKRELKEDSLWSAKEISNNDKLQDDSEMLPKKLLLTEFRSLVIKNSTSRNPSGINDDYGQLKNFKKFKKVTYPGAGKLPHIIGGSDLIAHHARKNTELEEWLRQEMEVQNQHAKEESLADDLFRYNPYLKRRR
UniProt Q92878: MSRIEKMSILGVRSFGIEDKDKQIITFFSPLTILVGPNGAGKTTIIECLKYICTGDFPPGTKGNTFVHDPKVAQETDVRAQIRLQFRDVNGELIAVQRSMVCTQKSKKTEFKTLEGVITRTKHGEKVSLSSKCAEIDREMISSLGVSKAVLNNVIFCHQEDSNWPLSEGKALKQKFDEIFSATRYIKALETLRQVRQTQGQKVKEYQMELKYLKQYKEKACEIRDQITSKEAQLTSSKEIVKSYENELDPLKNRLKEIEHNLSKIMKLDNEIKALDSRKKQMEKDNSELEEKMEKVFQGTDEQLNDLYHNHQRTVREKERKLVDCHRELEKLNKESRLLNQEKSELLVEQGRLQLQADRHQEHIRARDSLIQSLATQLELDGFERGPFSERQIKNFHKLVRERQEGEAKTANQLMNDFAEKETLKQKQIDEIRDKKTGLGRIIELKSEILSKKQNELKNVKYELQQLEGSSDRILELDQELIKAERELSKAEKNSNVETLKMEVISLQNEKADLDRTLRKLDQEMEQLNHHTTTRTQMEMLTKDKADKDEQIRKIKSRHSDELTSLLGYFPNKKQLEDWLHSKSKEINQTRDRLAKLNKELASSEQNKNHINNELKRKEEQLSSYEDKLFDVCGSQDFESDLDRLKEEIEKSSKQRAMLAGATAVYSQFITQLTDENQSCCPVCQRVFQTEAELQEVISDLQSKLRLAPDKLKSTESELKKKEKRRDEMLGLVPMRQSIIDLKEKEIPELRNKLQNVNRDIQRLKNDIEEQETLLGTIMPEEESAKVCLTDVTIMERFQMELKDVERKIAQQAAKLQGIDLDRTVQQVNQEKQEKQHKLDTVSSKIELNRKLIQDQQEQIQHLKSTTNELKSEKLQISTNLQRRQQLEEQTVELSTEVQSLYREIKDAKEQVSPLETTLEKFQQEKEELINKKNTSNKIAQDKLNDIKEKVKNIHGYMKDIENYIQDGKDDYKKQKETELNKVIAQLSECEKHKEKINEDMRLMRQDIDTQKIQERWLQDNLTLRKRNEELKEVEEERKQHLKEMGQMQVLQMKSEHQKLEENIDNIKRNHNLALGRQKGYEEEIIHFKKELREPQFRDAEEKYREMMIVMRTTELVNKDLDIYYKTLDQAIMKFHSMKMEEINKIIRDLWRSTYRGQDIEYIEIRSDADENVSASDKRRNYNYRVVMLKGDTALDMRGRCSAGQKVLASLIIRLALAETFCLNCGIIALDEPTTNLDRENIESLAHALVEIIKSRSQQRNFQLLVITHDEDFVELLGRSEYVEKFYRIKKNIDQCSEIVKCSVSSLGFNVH

Biological target: T1, TAP-Peli1 (Flag-tagged Peli1) (human) (UniProt Q96FA3)
T1 sequence: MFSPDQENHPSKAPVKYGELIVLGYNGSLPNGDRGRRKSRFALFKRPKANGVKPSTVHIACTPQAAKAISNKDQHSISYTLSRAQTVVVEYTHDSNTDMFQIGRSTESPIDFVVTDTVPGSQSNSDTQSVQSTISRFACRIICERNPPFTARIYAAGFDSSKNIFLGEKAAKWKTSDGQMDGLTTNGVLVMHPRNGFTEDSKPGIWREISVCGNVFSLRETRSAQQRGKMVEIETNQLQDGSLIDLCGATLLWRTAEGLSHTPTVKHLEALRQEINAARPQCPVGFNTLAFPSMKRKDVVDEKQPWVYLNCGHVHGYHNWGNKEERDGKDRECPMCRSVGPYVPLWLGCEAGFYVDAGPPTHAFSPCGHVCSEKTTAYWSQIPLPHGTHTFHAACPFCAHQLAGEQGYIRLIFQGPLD
Experiment: pull-down; 293T cells transfected with TAP or TAP-Peli1, with or without IR (4 Gy, 30 min); lysed in NETN buffer; streptavidin-Sepharose beads 8 h at 4 °C; bound proteins immunoblotted

Substance	binding
ATR (endogenous, 293T) (from UniProt Q13535 1-2644)	no binding
NBS1 (endogenous, 293T) (from UniProt O60934 1-754)	binds
RAD50 (endogenous, 293T) (from UniProt Q92878 1-1312)	binds
